In paper PMC6495647:
For at least one entry, the source does not settle the construct or the ends of the probe. The comparison behind a weaker result is the experiment's own reference, which may not be listed here. For some assays here: Where a protein sequence is shown, tags need not be part of it.

Tests used:
MucB = target: T1, MucB (UniProt Q79BK7); assay: SPR; details: MucB 0.26 uM, higher affinity for ssDNA than dsDNA; SPR (BIAcore 2000, SA chip): 20 mM HEPES pH 8.0, 50 mM K-glutamate, 10 mM Mg acetate, 5% glycerol, 0.1 mM EDTA, 2 mM DTT, 0.05% Surfactant P20 (1% P20 in MucB sample); recombinant protein; label: 5'-biotin on strand 1
T1 sequence (looked up, limits assumed): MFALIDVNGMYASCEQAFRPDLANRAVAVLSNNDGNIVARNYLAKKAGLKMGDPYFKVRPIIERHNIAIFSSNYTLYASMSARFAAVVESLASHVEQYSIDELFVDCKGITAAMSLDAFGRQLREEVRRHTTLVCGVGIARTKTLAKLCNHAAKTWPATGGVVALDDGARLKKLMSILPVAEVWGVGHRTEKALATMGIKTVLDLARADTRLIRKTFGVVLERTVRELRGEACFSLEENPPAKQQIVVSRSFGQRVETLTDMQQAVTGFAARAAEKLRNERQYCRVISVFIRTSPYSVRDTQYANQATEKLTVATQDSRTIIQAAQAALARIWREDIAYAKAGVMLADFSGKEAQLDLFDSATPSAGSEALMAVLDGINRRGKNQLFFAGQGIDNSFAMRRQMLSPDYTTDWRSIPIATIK

MucB + MucA' = assay: SPR; details: MucB 0.26 uM premixed with MucA' 1 or 10 uM, binding decreased vs MucB alone; SPR (BIAcore 2000, SA chip): 20 mM HEPES pH 8.0, 50 mM K-glutamate, 10 mM Mg acetate, 5% glycerol, 0.1 mM EDTA, 2 mM DTT, 0.05% Surfactant P20 (1% P20 in MucB sample); recombinant protein; label: 5'-biotin; single-stranded DNA

Sequence	binding result (MucB)	binding result (MucB + MucA')
GCGGCGGTTGAGTAGCTCTTCTTCCAGCACGTTTTCGCCGATAATACCGGGATCGACCACGCCATCCATTACC (double strand) [73-mer dsDNA oligonucleotide]	binds more weakly	
GCGGCGGTTGAGTAGCTCTTCTTCCAGCACGTTTTCGCCGATAATACCGGGATCGACCACGCCATCCATTACC [73-mer ssDNA oligonucleotide]		binds more weakly
